Laboratory results: paper PMC12700831
No constants are given. Whether binding was seen depends on the method and setting. In cells and extracts the contact can be indirect. Some entries that bind do so weakly or less than the wild type.

By UniProt entry, the sequences of proteins in these tests, tags left out.
UniProt Q5TEA3: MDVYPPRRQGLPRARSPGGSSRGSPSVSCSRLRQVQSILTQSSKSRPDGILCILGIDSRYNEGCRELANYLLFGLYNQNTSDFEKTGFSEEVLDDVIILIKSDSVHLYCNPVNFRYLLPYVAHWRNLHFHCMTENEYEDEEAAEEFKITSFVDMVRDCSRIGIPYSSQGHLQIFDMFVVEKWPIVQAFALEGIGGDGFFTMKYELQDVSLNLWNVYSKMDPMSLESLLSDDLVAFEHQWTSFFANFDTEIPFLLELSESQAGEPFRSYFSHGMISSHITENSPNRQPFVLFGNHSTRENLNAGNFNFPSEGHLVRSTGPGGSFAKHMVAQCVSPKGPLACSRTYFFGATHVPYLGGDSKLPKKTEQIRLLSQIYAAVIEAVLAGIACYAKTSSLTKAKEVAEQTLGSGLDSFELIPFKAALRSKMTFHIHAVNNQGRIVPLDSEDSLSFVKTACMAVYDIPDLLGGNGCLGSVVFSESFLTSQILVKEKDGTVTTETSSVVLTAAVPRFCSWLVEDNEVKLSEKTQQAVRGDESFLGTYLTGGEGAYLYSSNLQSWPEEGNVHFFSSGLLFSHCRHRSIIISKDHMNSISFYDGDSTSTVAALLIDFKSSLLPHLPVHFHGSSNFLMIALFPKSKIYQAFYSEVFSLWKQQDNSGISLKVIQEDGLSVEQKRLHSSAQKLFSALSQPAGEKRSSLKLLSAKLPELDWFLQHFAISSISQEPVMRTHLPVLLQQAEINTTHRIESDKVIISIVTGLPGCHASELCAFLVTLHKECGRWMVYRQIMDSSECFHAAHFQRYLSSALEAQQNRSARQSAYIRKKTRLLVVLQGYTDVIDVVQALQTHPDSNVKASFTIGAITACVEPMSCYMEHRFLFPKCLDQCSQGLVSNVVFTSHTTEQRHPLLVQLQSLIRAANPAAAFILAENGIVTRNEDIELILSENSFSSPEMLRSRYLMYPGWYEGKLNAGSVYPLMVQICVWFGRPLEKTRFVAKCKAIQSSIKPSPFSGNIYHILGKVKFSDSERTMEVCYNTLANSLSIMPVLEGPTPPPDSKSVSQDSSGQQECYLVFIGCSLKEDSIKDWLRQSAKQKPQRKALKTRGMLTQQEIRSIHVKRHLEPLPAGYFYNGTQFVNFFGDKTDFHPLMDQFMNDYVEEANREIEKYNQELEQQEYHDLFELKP

B1: IFT74 (endogenous, human airway epithelial cells) (protein, UniProt Q96LB3 1-600)
chain: MASNHKSSAARPVSRGGVGLTGRPPSGIRPLSGNIRVATAMPPGTARPGSRGCPIGTGGVLSSQIKVAHRPVTQQGLTGMKTGTKGPQRQILDKSYYLGLLRSKISELTTEVNKLQKGIEMYNQENSVYLSYEKRAETLAVEIKELQGQLADYNMLVDKLNTNTEMEEVMNDYNMLKAQNDRETQSLDVIFTERQAKEKQIRSVEEEIEQEKQATDDIIKNMSFENQVKYLEMKTTNEKLLQELDTLQQQLDSQNMKKESLEAEIAHSQVKQEAVLLHEKLYELESHRDQMIAEDKSIGSPMEEREKLLKQIKDDNQEIASMERQLTDTKEKINQFIEEIRQLDMDLEEHQGEMNQKYKELKKREEHMDTFIETFEETKNQELKRKAQIEANIVALLEHCSRNINRIEQISSITNQELKMMQDDLNFKSTEVQKSQSTAQNLTSDIQRLQLDLQKMELLESKMTEEQHSLKSKIKQMTTDLEIYNDLPALKSSGEEKIKKLHQERMILSTHRNAFKKIMEKQNIEYEALKTQLQENETHSQLTNLERKWQHLEQNNFAMKEFIATKSQESDYQPIKKNVTKQIAEYNKTIVDALHSTSGN
B2: IFT81 (endogenous, human airway epithelial cells) (protein, UniProt Q8WYA0 1-676)
chain: MSDQIKFIMDSLNKEPFRKNYNLITFDSLEPMQLLQVLSDVLAEIDPKQLVDIREEMPEQTAKRMLSLLGILKYKPSGNATDMSTFRQGLVIGSKPVIYPVLHWLLQRTNELKKRAYLARFLIKLEVPSEFLQDETVADTNKQYEELMEAFKTLHKEYEQLKISGFSTAEIRKDISAMEEEKDQLIKRVEHLKKRVETAQNHQWMLKIARQLRVEKEREEYLAQQKQEQKNQLFHAVQRLQRVQNQLKSMRQAAADAKPESLMKRLEEEIKFNLYMVTEKFPKELENKKKELHFLQKVVSEPAMGHSDLLELESKINEINTEINQLIEKKMMRNEPIEGKLSLYRQQASIISRKKEAKAEELQEAKEKLASLEREASVKRNQTREFDGTEVLKGDEFKRYVNKLRSKSTVFKKKHQIIAELKAEFGLLQRTEELLKQRHENIQQQLQTMEEKKGISGYSYTQEELERVSALKSEVDEMKGRTLDDMSEMVKKLYSLVSEKKSALASVIKELRQLRQKYQELTQECDEKKSQYDSCAAGLESNRSKLEQEVRRLREECLQEESRYHYTNCMIKNLEVQLRRATDEMKAYISSDQQEKRKAIREQYTKNTAEQENLGKKLREKQKVIRESHGPNMKQAKMWRDLEQLMECKKQCFLKQQSQTSIGQVIQEGGEDRLIL
B3: DNAI2 (protein, UniProt Q9GZS0 1-605)
chain: MEIVYVYVKKRSEFGKQCNFSDRQAELNIDIMPNPELAEQFVERNPVDTGIQCSISMSEHEANSERFEMETRGVNHVEGGWPKDVNPLELEQTIRFRKKVEKDENYVNAIMQLGSIMEHCIKQNNAIDIYEEYFNDEEAMEVMEEDPSAKTINVFRDPQEIKRAATHLSWHPDGNRKLAVAYSCLDFQRAPVGMSSDSYIWDLENPNKPELALKPSSPLVTLEFNPKDSHVLLGGCYNGQIACWDTRKGSLVAELSTIESSHRDPVYGTIWLQSKTGTECFSASTDGQVMWWDIRKMSEPTEVVILDITKKEQLENALGAISLEFESTLPTKFMVGTEQGIVISCNRKAKTSAEKIVCTFPGHHGPIYALQRNPFYPKNFLTVGDWTARIWSEDSRESSIMWTKYHMAYLTDAAWSPVRPTVFFTTRMDGTLDIWDFMFEQCDPTLSLKVCDEALFCLRVQDNGCLIACGSQLGTTTLLEVSPGLSTLQRNEKNVASSMFERETRREKILEARHREMRLKEKGKAEGRDEEQTDEELAVDLEALVSKAEEEFFDIIFAELKKKEADAIKLTPVPQQPSPEEDQVVEEGEEAAGEEGDEEVEEDLA

target: DNAAF9 (endogenous, human airway epithelial cells) (human (endogenous in HAECs)) (UniProt Q5TEA3); test: co-IP; endogenous DNAAF9 immunoprecipitated from HAEC (EC) lysates, western blot of the immunoprecipitates

| Binder | binding |
| --- | --- |
| B1 | binds |
| B2 | binds |
| B3 | binds |
